Literature values, collected in US20110237597A1, “METHOD OF TREATING PERIPHERAL NERVE SENSORY LOSS USING COMPOUNDS HAVING NICOTINIC ACETYLCHOLINE RECEPTOR ACTIVITY” (priority 2008, published 2011).
For at least one compound, name, drawing or mass did not settle the structure.

Test system: FA symptoms
Conditions: literature reports; cited from earlier work

## CNC(=O)Oc1ccc2c(c1)[C@]1(C)CCN(C)[C@@H]1N2C [physostigmine]
  improvement in FA symptoms: no consistent, significant improvement
